PubChem BioAssay AID652243 | Drosophila RNAi Screening Center | 2013
The deposit covers about 24,000 reagents; this is an unselected part of those with a known target gene and a result. Over the whole deposit, 246 (1%) are marked active. 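Plates not normalised; calls are printed but the firefly/Renilla ratio behind them is not deposited; fold cut for lowering reported inconsistently.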 Raw values are not corrected between plates. Entries without a mark were called inactive. A plus sign joins genes that one reagent is predicted to hit. Not given: the amount of reagent.

Assay: 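Fly regulators of androgen-dependent reporter output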 (primary screen)
System: Drosophila S2R+ cells
Reagent: long dsRNA against Drosophila genes
Timing: 72 h (48 h, then 24 h hormone)
Conditions: synthetic androgen R1881 at 10 nM for 24 h
Measured: 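Per-well raw luminescence of the androgen-driven firefly reporter and of the Renilla control, two replicates each, without normalisation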
Direction: firefly reporter light: higher = more light from androgen-responsive reporter; Renilla control light: higher = more constitutive control signal (cell number, transfection)
Call rule: 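Hit when the log firefly-to-Renilla ratio dropped or increased by a fixed fold versus the mean of GFP or LacZ controls across duplicate plates; lowering cut given as 1.5 and as 3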
Meaning of the calls: active = hit: reporter lowered or raised; inactive = no hit

Which result is listed for mRF1 [DRSC02880]?
firefly reporter light, replicate 1: 8.21e5; firefly reporter light, replicate 2: 8.60e5; Renilla control light, replicate 1: 1.52e6; Renilla control light, replicate 2: 1.30e6

With mRF1 [DRSC29576], how do the results read?
firefly reporter light, replicate 1: 3.00e5 (active); firefly reporter light, replicate 2: 2.95e5; Renilla control light, replicate 1: 1.16e6; Renilla control light, replicate 2: 1.16e6

For CG32407 [DRSC09789], what does the deposit list?
firefly reporter light, replicate 1: 86070; firefly reporter light, replicate 2: 65474; Renilla control light, replicate 1: 1.31e6; Renilla control light, replicate 2: 7.67e5

Which result is listed for Yeti [DRSC21138]?
firefly reporter light, replicate 1: 8.79e5; firefly reporter light, replicate 2: 6.98e5; Renilla control light, replicate 1: 1.10e6; Renilla control light, replicate 2: 8.78e5

For Usp1 [DRSC14155], what does the deposit list?
firefly reporter light, replicate 1: 1.43e5; firefly reporter light, replicate 2: 1.08e5; Renilla control light, replicate 1: 1.30e6; Renilla control light, replicate 2: 9.51e5

What did the screen give for CG14252 [DRSC14747]?
firefly reporter light, replicate 1: 1.51e5; firefly reporter light, replicate 2: 1.41e5; Renilla control light, replicate 1: 1.79e6; Renilla control light, replicate 2: 1.96e6

For Fdh [DRSC16670], what was measured?
firefly reporter light, replicate 1: 26341; firefly reporter light, replicate 2: 40088; Renilla control light, replicate 1: 3.40e5; Renilla control light, replicate 2: 6.09e5

With CR10032 [DRSC12499], what was measured?
firefly reporter light, replicate 1: 67; firefly reporter light, replicate 2: 6122

With CR10032 [DRSC28183], how do the results read?
firefly reporter light, replicate 1: 4.59e5; firefly reporter light, replicate 2: 4.53e5; Renilla control light, replicate 1: 1.97e6; Renilla control light, replicate 2: 1.66e6

What is on record for Gnptab [DRSC07057]?
firefly reporter light, replicate 1: 4.20e5; firefly reporter light, replicate 2: 2.61e5; Renilla control light, replicate 1: 1.88e6; Renilla control light, replicate 2: 1.50e6

What did the screen give for CG7458 + CR34262 [DRSC38665]?
firefly reporter light, replicate 1: 6.83e5; firefly reporter light, replicate 2: 6.17e5; Renilla control light, replicate 1: 1.82e6; Renilla control light, replicate 2: 1.98e6

Which result is listed for CG31467 [DRSC16048]?
firefly reporter light, replicate 1: 2.71e5; firefly reporter light, replicate 2: 2.84e5; Renilla control light, replicate 1: 3.47e6; Renilla control light, replicate 2: 3.04e6

For CG31467 [DRSC28533], how do the results read?
firefly reporter light, replicate 1: 3.08e5; firefly reporter light, replicate 2: 5.13e5; Renilla control light, replicate 1: 3.80e5; Renilla control light, replicate 2: 1.12e6

How did the screen score CG9550 [DRSC03262]?
firefly reporter light, replicate 1: 1.71e5; firefly reporter light, replicate 2: 2.14e5; Renilla control light, replicate 1: 2.01e6; Renilla control light, replicate 2: 2.06e6

How did the screen score CG9550 [DRSC26557]?
firefly reporter light, replicate 1: 4.01e5; firefly reporter light, replicate 2: 3.13e5; Renilla control light, replicate 1: 6.07e5; Renilla control light, replicate 2: 3.28e5

Reformatted: 2 of the entries above
Gene,DRSC id,"firefly reporter light, replicate 1","firefly reporter light, replicate 2","Renilla control light, replicate 1","Renilla control light, replicate 2"
Yeti,DRSC21138,8.79e5,6.98e5,1.10e6,8.78e5
Usp1,DRSC14155,1.43e5,1.08e5,1.30e6,9.51e5
